# Measurements: the supplement of paper PMC8728848
# Some of the results follow.
# Tests used:
# Test in all cases: glycan array binding signal (z-score within array); higher = stronger binding
# Conditions in all cases: glycan notation: IUPAC condensed, linker removed
# [1] = target: Neu5Ac(a2-3)Gal(b1-4)GlcNAc(b1-6)GalNAc
# In short: (§1)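 Columns mapping to the same glycan were averaged after glycan names were converted to IUPAC-condensed notation. The data come from 3228 arrays in the Consortium for Functional Glycomics database, limited to those with an available protein sequence. Binding is reported as a within-array Z-score averaged across arrays of one protein sequence and across linkers.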
# [2] = target: Neu5Ac(a2-3)Gal(b1-4)GlcNAc(b1-6)[Gal(b1-3)]GalNAc
# In short: as §1
# [3] = target: Neu5Ac(a2-3)Gal(b1-4)GlcNAc(b1-6)[Neu5Ac(a2-3)Gal(b1-3)]GalNAc
# In short: as §1
# [4] = target: Neu5Ac(a2-3)Gal(b1-4)GlcNAc6S
# In short: as §1
# [5] = target: Neu5Ac(a2-3)Gal(b1-4)[Fuc(a1-3)]GlcNAc
# In short: as §1
# [6] = target: Neu5Ac(a2-3)Gal(b1-4)[Fuc(a1-3)]GlcNAc(b1-2)Man
# In short: as §1
# [7] = target: Neu5Ac(a2-3)Gal(b1-4)[Fuc(a1-3)]GlcNAc(b1-3)Gal
# In short: as §1
# [8] = target: Neu5Ac(a2-3)Gal(b1-4)[Fuc(a1-3)]GlcNAc(b1-3)Gal(b1-4)GlcNAc
# In short: as §1
# [9] = target: Neu5Ac(a2-3)Gal(b1-4)[Fuc(a1-3)]GlcNAc(b1-3)Gal(b1-4)[Fuc(a1-3)]GlcNAc(b1-3)Gal(b1-4)[Fuc(a1-3)]GlcNAc
# In short: as §1
# [10] = target: Neu5Ac(a2-3)Gal(b1-4)[Fuc(a1-3)]GlcNAc(b1-3)GalNAc
# In short: as §1
# [11] = target: Neu5Ac(a2-3)Gal(b1-4)[Fuc(a1-3)]GlcNAc(b1-6)[Gal(b1-3)]GalNAc
# In short: as §1
# [12] = target: Neu5Ac(a2-3)Gal(b1-4)[Fuc(a1-3)]GlcNAc(b1-6)[Neu5Ac(a2-3)Gal(b1-3)]GalNAc
# In short: as §1
# [13] = target: Neu5Ac(a2-3)Gal(b1-4)[Fuc(a1-3)]GlcNAc6S
# In short: as §1
# [14] = target: Neu5Ac(a2-3)Gal6S(b1-4)GlcNAc
# In short: as §1
# [15] = target: Neu5Ac(a2-3)Gal6S(b1-4)[Fuc(a1-3)]GlcNAc
# In short: as §1
# [16] = target: Neu5Ac(a2-3)GalNAc
# In short: as §1
# [17] = target: Neu5Ac(a2-3)GalNAc(b1-4)GlcNAc
# In short: as §1
# [18] = target: Neu5Ac(a2-3)[GalNAc(b1-4)]Gal(b1-4)Glc
# In short: as §1
# [19] = target: Neu5Ac(a2-3)[GalNAc(b1-4)]Gal(b1-4)GlcNAc
# In short: as §1
# [20] = target: Neu5Ac(a2-3)[GalNAc(b1-4)]Gal(b1-4)GlcNAc(b1-3)GalNAc
# In short: as §1
# [21] = target: Neu5Ac(a2-3)[Neu5Ac(a2-6)]GalNAc
# In short: as §1
# [22] = target: Neu5Ac(a2-6)Gal
# In short: as §1
# [23] = target: Neu5Ac(a2-6)Gal(b1-3)GlcNAc(b1-3)[Gal(b1-4)GlcNAc(b1-6)]Gal(b1-4)Glc
# In short: as §1
# [24] = target: Neu5Ac(a2-6)Gal(b1-4)Glc
# In short: as §1
# [25] = target: Neu5Ac(a2-6)Gal(b1-4)GlcNAc
# In short: as §1
# [26] = target: Neu5Ac(a2-6)Gal(b1-4)GlcNAc(b1-2)Man
# In short: as §1
# [27] = target: Neu5Ac(a2-6)Gal(b1-4)GlcNAc(b1-2)Man(a1-3)Man(b1-4)GlcNAc(b1-4)GlcNAc
# In short: as §1
# [28] = target: Neu5Ac(a2-6)Gal(b1-4)GlcNAc(b1-2)Man(a1-3)[Gal(b1-4)GlcNAc(b1-2)Man(a1-6)]Man(b1-4)GlcNAc(b1-4)GlcNAc
# In short: as §1
# [29] = target: Neu5Ac(a2-6)Gal(b1-4)GlcNAc(b1-2)Man(a1-3)[GlcNAc(b1-2)Man(a1-6)]Man(b1-4)GlcNAc(b1-4)GlcNAc
# In short: as §1
# [30] = target: Neu5Ac(a2-6)Gal(b1-4)GlcNAc(b1-2)Man(a1-3)[GlcNAc(b1-4)][Neu5Ac(a2-6)Gal(b1-4)GlcNAc(b1-2)Man(a1-6)]Man(b1-4)GlcNAc(b1-4)GlcNAc
# In short: as §1
# [31] = target: Neu5Ac(a2-6)Gal(b1-4)GlcNAc(b1-2)Man(a1-3)[Man(a1-6)]Man(b1-4)GlcNAc(b1-4)GlcNAc
# In short: as §1
binder,measurement,setting,value
LlpB (Pseudomonas fluorescens) (protein) MGSSHHHHHHSSGLVPRGSHMASSGFRIILFNSANNGTAILPPRNCLVAGQYLESPSKRYKLILEADGNLRLYDNGVPIWVADSSVPYTYVDNRPNTNLVTCFYMQGSAFLVDRVGSRTWATIGDWIDGAADRAYLQVQDDGNVVVVDGVPRWARFGFTPAALPNRGVFYPDHGTGPLPSFPVWSWTF,glycan array binding signal (z-score),[1],1.64
same,glycan array binding signal (z-score),[2],0.321
same,glycan array binding signal (z-score),[3],-0.463
same,glycan array binding signal (z-score),[4],-1.53
same,glycan array binding signal (z-score),[5],-0.889
same,glycan array binding signal (z-score),[6],-0.176
same,glycan array binding signal (z-score),[7],-0.814
same,glycan array binding signal (z-score),[8],1.96
same,glycan array binding signal (z-score),[9],-0.145
same,glycan array binding signal (z-score),[10],0.993
same,glycan array binding signal (z-score),[11],1.93
same,glycan array binding signal (z-score),[12],-0.241
same,glycan array binding signal (z-score),[13],0.242
same,glycan array binding signal (z-score),[14],-0.815
same,glycan array binding signal (z-score),[15],-0.378
same,glycan array binding signal (z-score),[16],-0.197
same,glycan array binding signal (z-score),[17],-0.114
same,glycan array binding signal (z-score),[18],-1.61
same,glycan array binding signal (z-score),[19],-0.496
same,glycan array binding signal (z-score),[20],0.621
same,glycan array binding signal (z-score),[21],-0.595
same,glycan array binding signal (z-score),[22],0.15
same,glycan array binding signal (z-score),[23],-1.43
same,glycan array binding signal (z-score),[24],-0.182
same,glycan array binding signal (z-score),[25],-1.02
same,glycan array binding signal (z-score),[26],-0.792
same,glycan array binding signal (z-score),[27],1.2
same,glycan array binding signal (z-score),[28],-1.22
same,glycan array binding signal (z-score),[29],-0.285
same,glycan array binding signal (z-score),[30],-1.33
same,glycan array binding signal (z-score),[31],2.88

# 2 consecutive entries out of the list so far:
binder,measurement,setting,value
LlpB (Pseudomonas fluorescens) (protein) MGSSHHHHHHSSGLVPRGSHMASSGFRIILFNSANNGTAILPPRNCLVAGQYLESPSKRYKLILEADGNLRLYDNGVPIWVADSSVPYTYVDNRPNTNLVTCFYMQGSAFLVDRVGSRTWATIGDWIDGAADRAYLQVQDDGNVVVVDGVPRWARFGFTPAALPNRGVFYPDHGTGPLPSFPVWSWTF,glycan array binding signal (z-score),[22],0.15
same,glycan array binding signal (z-score),[23],-1.43
